This is an account of results in article PMC4514735, “The FKBP52 Cochaperone Acts in Synergy with β-Catenin to Potentiate Androgen Receptor Signaling” (PLoS ONE, 2015).

Amino acid sequences for entries named in this document (tags omitted). A change or cut given only in a name is not applied to a line headed by its entry.
UniProt P10275: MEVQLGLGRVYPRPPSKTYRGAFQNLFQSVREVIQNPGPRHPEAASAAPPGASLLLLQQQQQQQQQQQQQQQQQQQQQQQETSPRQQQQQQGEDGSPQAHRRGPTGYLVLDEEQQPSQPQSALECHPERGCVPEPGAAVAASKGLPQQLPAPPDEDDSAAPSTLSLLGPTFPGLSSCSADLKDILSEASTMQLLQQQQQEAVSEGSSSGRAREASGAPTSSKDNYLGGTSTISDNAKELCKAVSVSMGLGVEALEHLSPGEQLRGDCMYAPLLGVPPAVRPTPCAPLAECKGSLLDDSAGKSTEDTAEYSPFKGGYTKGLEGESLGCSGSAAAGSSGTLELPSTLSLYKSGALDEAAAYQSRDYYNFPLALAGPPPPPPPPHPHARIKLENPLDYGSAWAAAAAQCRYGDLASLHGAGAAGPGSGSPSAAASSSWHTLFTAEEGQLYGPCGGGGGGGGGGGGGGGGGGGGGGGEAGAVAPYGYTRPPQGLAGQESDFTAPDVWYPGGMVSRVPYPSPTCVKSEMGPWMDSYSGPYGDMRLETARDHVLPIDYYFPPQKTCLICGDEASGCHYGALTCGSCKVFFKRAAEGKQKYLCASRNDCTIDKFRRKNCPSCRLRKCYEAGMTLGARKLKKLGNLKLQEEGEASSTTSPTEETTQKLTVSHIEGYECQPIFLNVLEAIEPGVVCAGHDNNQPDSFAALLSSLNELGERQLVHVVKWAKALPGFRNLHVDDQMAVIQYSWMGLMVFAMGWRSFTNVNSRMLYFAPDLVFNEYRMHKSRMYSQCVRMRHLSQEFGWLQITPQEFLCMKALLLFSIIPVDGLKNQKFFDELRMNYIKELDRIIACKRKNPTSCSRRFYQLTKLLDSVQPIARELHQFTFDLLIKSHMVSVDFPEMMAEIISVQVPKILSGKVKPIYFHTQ
UniProt P35222: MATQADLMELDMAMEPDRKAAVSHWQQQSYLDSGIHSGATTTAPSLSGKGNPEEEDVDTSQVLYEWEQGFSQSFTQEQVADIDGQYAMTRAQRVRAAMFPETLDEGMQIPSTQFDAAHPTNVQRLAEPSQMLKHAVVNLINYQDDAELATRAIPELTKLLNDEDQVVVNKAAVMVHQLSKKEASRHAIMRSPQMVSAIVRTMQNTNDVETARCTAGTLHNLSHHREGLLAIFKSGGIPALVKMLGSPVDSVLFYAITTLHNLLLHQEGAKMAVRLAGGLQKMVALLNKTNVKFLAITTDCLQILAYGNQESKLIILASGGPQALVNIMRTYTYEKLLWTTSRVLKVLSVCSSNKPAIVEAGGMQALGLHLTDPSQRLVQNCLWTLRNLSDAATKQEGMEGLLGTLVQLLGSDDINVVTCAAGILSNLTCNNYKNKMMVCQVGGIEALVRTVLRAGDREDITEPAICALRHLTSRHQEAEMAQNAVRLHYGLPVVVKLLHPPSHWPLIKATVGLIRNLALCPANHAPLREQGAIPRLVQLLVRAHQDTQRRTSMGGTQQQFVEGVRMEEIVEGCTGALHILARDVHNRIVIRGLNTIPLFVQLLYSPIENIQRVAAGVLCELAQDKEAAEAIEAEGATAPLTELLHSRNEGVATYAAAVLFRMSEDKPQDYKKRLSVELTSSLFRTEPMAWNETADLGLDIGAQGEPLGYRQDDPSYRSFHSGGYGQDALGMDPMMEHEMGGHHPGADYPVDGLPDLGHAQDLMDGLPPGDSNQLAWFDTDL

No constants are given. Whether binding was seen depends on the method and setting. Binding seen in cells or lysates may run through a third protein. A result given as binding can be weak or reduced; the word gives no strength.

The assay concerns the target Gal4 DNA binding domain (DBD)-AR LBD chimeric protein (UniProt P10275). Kind of assay: co-IP; 293T cells co-transfected with Gal4-AR LBD and β-catenin, lysates (RIPA buffer), anti-Gal4 antibody, blot for β-catenin; untreated, 10 nM DHT alone or 30 μM MJC13 alone.

“β-catenin (expression plasmid, 293T) (from UniProt P35222 1-781)”: the binding entry was “binds”.
